Some of these results come from one statement about several compounds together.
Assay: UV/visible absorbance characteristics (λmax, λcrit, ε, E 1%,1 cm)
Type: physicochemical

| Increase in λmax relative to parent absorber 98 | Structure (SMILES) |
| --- | --- |
| 15-20 nm | CC1(C)CCN(C(C)(C)C)C=C1C(=O)C(Cl)(Cl)Cl [Compound 169] |
| 15-20 nm | CC1(C)CCN(C(C)(C)C)C=C1C(=O)C(Br)(Br)Br [Compound 170] |

Source: patent publication US10315994B2, “Photostable compounds, absorbing compounds and uses thereof” (Commonwealth Scientific and Industrial Research Organisation, priority 2015, dated 2019)
